Experimental data: PubChem BioAssay AID504804 (Drosophila RNAi Screening Center, 2011)
Purpose: 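Knock-downs shielding fly cells from apoptosis caused by DNA damage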 (primary screen). System: Drosophila Kc cells. Knock-down reagent: long dsRNA against Drosophila genes, 0.5 µg dsRNA per well. Timing: 96 h (48 h knock-down, then 48 h drug). Challenge: doxorubicin 5 µg/ml for 48 h, added 48 h after dsRNA. Read-out: 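Viability measured as cellular ATP by luminescence after 48 h knock-down then 48 h doxorubicin at 5 µg/ml; unnormalised plate counts for each replicate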. Scale: raw ATP luminescence: higher = more viable cells, protection from doxorubicin. Rule for the call: 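z-score of 2 or more over plate mean in both duplicates, retained only when retests and separate dsRNAs confirm the protection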.
The screen tested about 19,000 reagents; below is a random part of those that have a named target and a result. Of all reagents, 47 (0.25%) were called active. 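Signals are raw, not normalised; exact z-scores behind calls not deposited; actives needed confirmation, so some wells reaching 2 SD are inactive.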 Reagent sequences are not shown.

target gene	amplicon	SD above plate mean	raw ATP luminescence, replicate 1	raw ATP luminescence, replicate 2	Call
kz	DRSC18786		70760	54050	inactive
Sik3	DRSC06771		56520	59163	inactive
CG1227	DRSC12534		47760	24007	inactive
MRG15	DRSC16731		54430	18520	inactive
CG31760	DRSC02590		66173	72483	inactive
CG6293	DRSC16011		48227	30913	inactive
SREBP	DRSC11182		60340	52137	inactive
Pebp1	DRSC15354		47370	54130	inactive
CG44153	DRSC02228		1.27e5	76680	inactive
CG44153	DRSC02229		33230	32617	inactive
CG44153	DRSC02902		28263	21837	inactive
CG44153	DRSC02903		17413	24630	inactive
ND-B16.6	DRSC18306		30510	33660	inactive
ft	DRSC00819		1.19e5	85667	inactive
RhoL	DRSC16824		52010	31853	inactive
CG11857	DRSC14411		54550	61020	inactive
Tpc1	DRSC15614		59493	50047	inactive
Tpc1	DRSC16074		49243	22930	inactive
CG31807	DRSC01550		3.36e5	2.67e5	inactive
Shrm	DRSC07221		64613	67097	inactive
CG10301	DRSC14226		59630	70500	inactive
Cen	DRSC02704		78997	62560	inactive
CR32745	DRSC17442		1.85e5	1.89e5	inactive
Pits	DRSC19385		3.43e5	2.98e5	inactive
Pits	DRSC19812		3.41e5	2.98e5	inactive
CG14624	DRSC18634		41880	38260	inactive
Syx13	DRSC09836		78927	1.19e5	inactive
CG4009	DRSC15536		1.08e5	92300	inactive
CG3610	DRSC15502		61470	77000	inactive
Nep2	DRSC12126		17580	20113	inactive
CG11584	DRSC19408		3.15e5	2.52e5	inactive
CG31674	DRSC03208	2 to 3 SD above plate mean	90450	1.10e5	active
ph-p	DRSC18820		49840	45260	inactive
mira	DRSC16998		37360	42010	inactive
CG17801	DRSC15273		46680	44690	inactive
Ssl2	DRSC14395		64360	49690	inactive
PQBP1	DRSC14393		43587	54483	inactive
CycE	DRSC03295		10817	41447	inactive
CycE	DRSC03296		51943	51117	inactive
CG6184	DRSC15986		37750	66800	inactive
ppk9	DRSC04134		46630	39183	inactive
ppk9	DRSC04135		41107	50927	inactive
CG6688	DRSC16094		72630	65110	inactive
Wdr37	DRSC14500		43050	44507	inactive
CG14609	DRSC12553		69160	75057	inactive
CG34427	DRSC09978		76633	83050	inactive
CG2004	DRSC18200		46890	50780	inactive
Wdr59	DRSC02771		85143	74310	inactive
CG8746	DRSC07257		31837	57140	inactive
jet	DRSC03116		1.14e5	73653	inactive
PHDP	DRSC04635		52877	72877	inactive
Andorra	DRSC19475		3.65e5	3.49e5	inactive
CG7166	DRSC11809		58793	67307	inactive
CG31467	DRSC16048		57600	43673	inactive
Pex5	DRSC18552		42980	53910	inactive
Obp83cd	DRSC12267		66970	71530	inactive
Lime	DRSC06752		39723	68963	inactive
Cyp313a3	DRSC16626		57117	50720	inactive
IntS14	DRSC00668		1.14e5	63930	inactive
CCT1	DRSC16877		34190	45990	inactive
RabX2	DRSC18234		3.05e5	2.92e5	inactive
CG6654	DRSC16084		63160	21463	inactive
STUB1	DRSC03282		47277	48100	inactive
eg	DRSC11885		62587	66850	inactive
Sodq	DRSC15924		56010	52250	inactive
metro	DRSC06341		84923	57283	inactive
Gpdh2	DRSC04346		42173	50127	inactive
Neu2	DRSC11819		62647	62850	inactive
Tig	DRSC03456		30970	25283	inactive
Fpgs1	DRSC19857		2.91e5	2.68e5	inactive
eIF3f2	DRSC04903		46460	53200	inactive
RpL6	DRSC14323		29950	38200	inactive
NSD	DRSC15691		52350	36050	inactive
stau	DRSC07698		68277	60130	inactive
Sec3	DRSC10384		51590	39587	inactive
CG5335	DRSC06931		61020	64467	inactive
Cont	DRSC12149		13897	14477	inactive
nonC	DRSC18367		32330	41310	inactive
Or33c	DRSC03388		50777	80717	inactive
CG10209	DRSC05980		56990	58287	inactive
CG43894	DRSC10123		89183	69597	inactive
DIP-epsilon	DRSC00932		3.01e5	2.99e5	inactive
DIP-epsilon	DRSC02313		20037	22927	inactive
CG6707	DRSC10697		72207	60573	inactive

Called active, among the entries above:
target gene	amplicon	SD above plate mean	raw ATP luminescence, replicate 1	raw ATP luminescence, replicate 2	Call
CG31674	DRSC03208	2 to 3 SD above plate mean	90450	1.10e5	active
